Data taken from the supplement of paper PMC11659162.
This is one part of the list. Single values of this set are uncertain.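 The cells are a human neuroglioma line carrying a green fluorescent autophagy reporter.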

These compounds were tested on H4 GFP-LC3 (assay: cell viability (scaled to control) (fraction of control); higher = more viable cells). Settings: 5 µM; 24 h.

| Structure (SMILES) | cell viability |
| --- | --- |
| CC(=O)N1CC[N+](C)(C)CC1 | 1.09 |
| COc1ccc(C(CN(C)C)C2(O)CCCCC2)cc1 (stereo not given) | 0.88 |
| COc1cccc(C2(O)CCCCC2CN(C)C)c1 (stereo not given) | 1.01 |
| COC(=O)[C@@H]1C[C@H](OC(C)=O)C(=O)[C@H]2[C@@]1(C)CC[C@H]1C(=O)O[C@H](c3ccoc3)C[C@]21C | 0.96 |
| C1CCc2nnnn2CC1 | 1.02 |
| CCNC(=O)[C@H]1O[C@@H](n2cnc3c(N)ncnc32)[C@H](O)[C@@H]1O | 1.07 |
| CNCC(O)c1ccc(O)cc1 (stereo not given) | 0.88 |
| C=CCN1CC[C@]23CCCC[C@H]2[C@H]1Cc1ccc(O)cc13 | 1.25 |
| CC(=O)OC1CN2CCC1CC2 (stereo not given) | 1.29 |
| COC(=O)/C=C/C(=O)N[C@@H]1CC[C@@]2(O)[C@H]3Cc4ccc(O)c5c4[C@@]2(CCN3CC2CC2)[C@H]1O5 | 1.05 |
| Clc1cncc(N2CCNCC2)n1 | 1.15 |
| N[C@@H](Cn1oc(=O)[nH]c1=O)C(=O)O | 1.13 |
| CC(C)c1cccc(C(C)C)c1O | 1.18 |
| CSCCC(NC(=O)C(Cc1ccccc1)NC(=O)CNC(=O)CNC(=O)C(N)Cc1ccc(O)cc1)C(=O)O (stereo not given) | 0.812 |
| Cc1nc(N)sc1CCN | 0.997 |
| CCCN1CCO[C@@H]2c3cc(O)ccc3OC[C@H]21 | 1.14 |
| Fc1ccc(C(OCCN2CCN(CCCc3ccccc3)CC2)c2ccc(F)cc2)cc1 | 0.972 |
| CN(C)Cc1c[nH]c2ccccc12 | 1.13 |
| C[N+]1(C)CCc2cc3c(cc2C1C1OC(=O)c2c1ccc1c2OCO1)OCO3 (single isomer, unassigned; (-)) | 0.855 |
| c1ccc(CCCN2CCN(CCOC(c3ccccc3)c3ccccc3)CC2)cc1 | 1.12 |

Copied from the listing (2 entries):

| Structure (SMILES) | cell viability |
| --- | --- |
| CN(C)Cc1c[nH]c2ccccc12 | 1.13 |
| C[N+]1(C)CCc2cc3c(cc2C1C1OC(=O)c2c1ccc1c2OCO1)OCO3 (single isomer, unassigned; (-)) | 0.855 |
